Results taken from article PMC11796312, “Multifunctional, Fluorene‐Based Modulator of Cholinergic and GABAergic Neurotransmission as a Novel Drug Candidate for Palliative Treatment of Alzheimer's Disease” (Angewandte Chemie (International Ed. in English), 2024).

The chains behind the UniProt entries cited, without tags or fusion partners.
UniProt P50406, whole entry: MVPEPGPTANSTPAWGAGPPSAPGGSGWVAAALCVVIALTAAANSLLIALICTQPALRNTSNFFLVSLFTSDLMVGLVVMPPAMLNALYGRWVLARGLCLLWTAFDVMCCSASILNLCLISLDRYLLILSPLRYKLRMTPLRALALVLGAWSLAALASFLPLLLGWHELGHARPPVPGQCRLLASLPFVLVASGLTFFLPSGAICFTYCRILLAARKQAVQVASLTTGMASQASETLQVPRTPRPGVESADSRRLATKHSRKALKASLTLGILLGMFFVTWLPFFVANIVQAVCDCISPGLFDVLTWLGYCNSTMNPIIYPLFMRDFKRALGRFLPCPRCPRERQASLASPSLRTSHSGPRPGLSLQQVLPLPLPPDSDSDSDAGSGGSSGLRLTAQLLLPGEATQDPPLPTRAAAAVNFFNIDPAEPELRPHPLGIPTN

Target: T1, human serotonin 5-HT6 receptor (Homo sapiens, UniProt P50406)
T1 construct: host or cells: 1321N1
Experiment: cAMP 5-HT6 functional assay
Type: cell-based

Structure (SMILES): COc1ccc(NS(=O)(=O)c2ccc(I)cc2)cc1N1CCN(C)CC1 [SB258585, reference compound]
- 5-HT6 antagonist mode pKb ± SEM: 8.69±0.005
